# Primary screen of a compound library

Source: ChEMBL document CHEMBL3988442, “University of Dundee, Small-Polar-MMV Screening Library” (2021).

A: 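Whole-parasite assay of Trypanosoma brucei over 72 hours; the read-out is not stated. Tested at 30 µM. Higher reads as stronger inhibition (inferred: compounds with an IC50 in retests scored well above the rest). Values scatter widely below zero; nearly all retest evidence comes from the higher of the two concentrations used. Of about 64,000 compounds tested this way, about 940 (1.5%) reached 50% or more in at least one test.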
B: 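Assay of Toxoplasma gondii numbers, read through their beta-galactosidase reporter with a colour substrate. Compounds at 10 µM. The record gives no direction; the compounds picked for IC50 retests had high values, so higher reads as fewer parasites. Of about 67,000 compounds tested this way, about 260 (0.38%) reached 50% or more in at least one test.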
C: 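Cell assay of Leishmania donovani living inside macrophages; the read-out is not stated. Concentration: 30 µM. The record gives no direction; compounds that gave an IC50 in retests scored well above the rest, so higher reads as stronger inhibition. Of about 69,000 compounds tested this way, about 1,000 (1.5%) reached 50% or more in at least one test.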

Values are the deposited “Percent Effect”, in %. The controls that fix the scale are not given in the record; negative values are as filed. The compounds are a random part of those screened. Two or more numbers in one place are separate tests of the same structure; such repeats can differ widely.

| SMILES | A | B | C |
|---|---|---|---|
| `CN(Cc1n[nH]c2c1CCCC2)C(=O)c1cccc(CCC(C)(C)O)c1` | -27.1% | 2.703% | 22.46% |
| `CN1CCC(n2nc(CC3CC3)nc2-c2ccc(F)cc2Cl)CC1` | -19.62% | 16.31% | 7.531% |
| `[H][C@]12CC[C@@]3(N=C(C)N(CCOC)C3=O)[C@@]1([H])CN(S(=O)(=O)CC(C)C)C2` | -10.19% | -4.843% | -9.901% |
| `CN1CCc2c(NC(=O)NCc3ccccc3Cl)cccc21` | -45.84% | -42.03% | 20.53% |
| `Cc1ccc(-n2nnc(C(=O)NCC3CCCCC3)n2)cc1` | 16.01% | 5.92% | -1.532% |
| `COc1ccc(S(=O)(=O)NCCCc2ccc(N(C)C)cc2)cc1F` | 14.51% | 8.88% | 32.52% & 47.45% |
| `CNC(=O)CN1CCCC12CCN(C(=O)c1ccc(F)cc1)CC2.O=C(O)C(F)(F)F` | -13.55% | -0.4224% | 13.4% |
| `COCCCNc1nc(CNC(C)=O)cc(-c2ccco2)n1` | 0.4306% | -24.86% | 6.349% & 10.24% |
| `c1cncc(-c2noc(CNc3ncnc4c3CCNCC4)n2)c1` | 12.36% | 1.326% | 35.11% |
| `Cc1nnc2n1CCN(CCCS(=O)(=O)c1ccccc1)C2` | 7.401% | -4.32% | 27.12% |
| `O=C(O)C(F)(F)F.O=C(O)C(F)(F)F.[H][C@@]12COC[C@]1(C(=O)NCc1ccccn1)CN(Cc1cnn(C)c1)C2` | 21.19% | 0% | -18.46% |
| `O=C(O)C(F)(F)F.[H][C@@]12CCN(Cc3ccc(C)o3)C[C@]1(C(=O)N1CCCO1)CCO2` | -6.915% | 2.233% | 2.396% |
| `CCNc1nc2c(s1)C(=O)CN(C(=O)NCc1ccccc1)C2` | -11.74% | -5.383% | 4.305% & 15.97% |
| `CS(=O)(=O)NCCC(=O)Nc1ccccc1N1CCc2ccccc21` | -2.494% | -1.202% | 12.06% |

For reference, 2 entries once more:

| SMILES | A | B | C |
|---|---|---|---|
| `[H][C@]12CC[C@@]3(N=C(C)N(CCOC)C3=O)[C@@]1([H])CN(S(=O)(=O)CC(C)C)C2` | -10.19% | -4.843% | -9.901% |
| `CNC(=O)CN1CCCC12CCN(C(=O)c1ccc(F)cc1)CC2.O=C(O)C(F)(F)F` | -13.55% | -0.4224% | 13.4% |